Experimental data as given in publication doi:10.1101/2025.09.18.676998.
No constants are given. Whether binding was seen depends on the method and setting. Binding seen in cells or lysates may run through a third protein. For part of these data: Binding calls can cover weak binding; strength is not graded here.

How the values were obtained:
[1] = target: Ewing’s sarcoma RNA binding protein 1b (Ewsr1b) (zebrafish (endogenous in embryos)); assay: proximity ligation
[2] = target: GFP-Ewsr1b synthesized from GFP-Ewsr1b mRNA carrying Long-3′UTR (zebrafish); assay: co-IP
[3] = target: GFP-Ewsr1b synthesized from GFP-Ewsr1b mRNA carrying Short-3′UTR (zebrafish); assay: co-IP

binding [1]: binds
binding [2]: binds
binding [3]: no binding
B1: Pou5f3 (protein, UniProt Q90270 1-471)
chain: MTERAQSPTAADCRPYEVNRAMYPQAAGLDGLGGASLQFAHGMLQDPSLIFNKAHFNGITPATAQTFFPFSGDFKTNDLQGGDFTQPKHWYPFAAPEFTGQVAGATAATQPANISPPIGETREQIKMPSEVKTEKDVEEYGNEENKPPSQYHLTAGTSSVPTGVNYYTPWNPNFWPGLSQITAQANISQAPPTPSASSPSLSPSPPGNGFGSPGFFSGGTAQNIPSAQAQSAPRSSGSSSGGCSDSEEETLTTEDLEQFAKELKHKRITLGFTQADVGLALGNLYGKMFSQTTICRFEALQLSFKNMCKLKPLLQRWLNEAENSENPQDMYKIERVFVDTRKRKRRTSLEGTVRSALESYFVKCPKPNTLEITHISDDLGLERDVVRVWFCNRRQKGKRLALPFDDECVEAQYYEQSPPPPPHMGGTVLPGQGYPGPAHPGGAPALYMPSLHRPDVFKNGLHPGLVGHLTS
